In the data set the test system is wild-type U2-OS cells. Nature of the data set: pH sensor specificity, non-specific binding (Example 10). Format: cell-based. As to conditions: 2 uM for 15 minutes.
In the case of “4-((1-(4-((2-(2-((6-chlorohexyl)oxy)ethoxy)ethyl)carbamoyl)phenyl)-3-oxo-6,9,12,15-tetraoxa-2-azaheptadecan-17-yl)) 3′,6′-bis(4-(4-sulfobutyl)piperazin-1-yl) rhodamine(5′,6′)carboxamide [PBI-4995]”, the non-specific binding entry is given as “no non-specific binding”.
In the case of `O=C(NCCOCCOCCOCCOCCOCCOCCCCCCCl)c1ccc(C(=O)[O-])c(-c2c3ccc(=[N+]4CCN(CCCCS(=O)(=O)O)CC4)cc-3oc3cc(N4CCN(CCCCS(=O)(=O)O)CC4)ccc23)c1` [PBI-4479] it was “no non-specific binding”; in that of `O=C(NCCOCCOCCCCCCCl)c1cccc(CNC(=O)c2ccc(C(=O)[O-])c(-c3c4ccc(=[N+]5CCN(CCCCS(=O)(=O)O)CC5)cc-4oc4cc(N5CCN(CCCCS(=O)(=O)O)CC5)ccc34)c2)c1` [PBI-4958], “no non-specific binding”; in that of `O=C(NCCOCCOCCCCCCCl)c1ccc(CNC(=O)c2ccc(C(=O)[O-])c(-c3c4ccc(=[N+]5CCN(CCCCS(=O)(=O)O)CC5)cc-4oc4cc(N5CCN(CCCCS(=O)(=O)O)CC5)ccc34)c2)cc1` [PBI-4959, 4-((4-((2-(2-((6-chlorohexyl)oxy)ethoxy)ethyl)carbamoyl)benzyl))-3′,6′-bis(4-(4-sulfobutyl)piperazin-1-yl) rhodamine(5′,6′) carboxamide], “no non-specific binding”.
In the case of `O=C(CCOCCOCCOCCOCCNC(=O)c1ccc(C(=O)[O-])c(-c2c3ccc(=[N+]4CCN(CCCCS(=O)(=O)O)CC4)cc-3oc3cc(N4CCN(CCCCS(=O)(=O)O)CC4)ccc23)c1)NCc1cccc(C(=O)NCCOCCOCCCCCCCl)c1` [PBI-4994] it was “no non-specific binding”; in that of `O=C(NCC1CCC(C(=O)NCCOCCOCCCCCCCl)CC1)c1ccc(C(=O)[O-])c(-c2c3ccc(=[N+]4CCN(CCCCS(=O)(=O)O)CC4)cc-3oc3cc(N4CCN(CCCCS(=O)(=O)O)CC4)ccc23)c1` (stereo not drawn) [PBI-5004, 4-(((4-((2-(2-((6-chlorohexyl)oxy)ethoxy)ethyl)carbamoyl)cyclohexyl)methyl)) 3′,6′-bis(4-(4-sulfobutyl)piperazin-1-yl) rhodamine(5′,6′) carboxamide], “no non-specific binding”.

Source of the values: patent publication US9702824B2, “pH sensors” (PROMEGA CORPORATION, priority 2012, dated 2017).
